# Experimental data from PubChem BioAssay AID504467 (National Center for Advancing Translational Sciences (NCATS), 2011).
# Among all 330,000 compounds or so, about 7,700 (2.3%) were called active. The inconclusive results got no clear call from the source; some entries with a clear call stand among them for comparison. Calls come from the whole dose curve; as a rule, active = well fitted inhibition curve with a large enough effect; inconclusive = small, poorly fitted or top-dose-only effect, or effect the other way; inactive = flat fitted curve, though single readings scatter. Potencies of inconclusive entries are doubtful fits and often do not repeat.
# Assay: qHTS screen for small molecules that inhibit ELG1-dependent DNA repair in human embryonic kidney (HEK293T) cells expressing luciferase-tagged ELG1; note: nearly all actives have a fitted effect of over 55% in size
# Settings: HEK293T ELG1-luciferase reporter, luminescence, 16 h, DNA damage induced by 5-fluorouridine; activity change, negative = inhibition: at 46.1 µM (top of the series)
# Summary of the method: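 5-Fluorouridine DNA damage + compound/DMSO, 2,000 cells/well, 16 h, 37 °C/5% CO2. ONE-Glo, 30 min RT, luminescence. Readout = decrease in reporter signal.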
# % is set by controls: 0 for no effect and ±100 for the full control effect; potency is the fitted concentration of half-maximal effect.
SMILES,Potency,"activity change, negative = inhibition"
O=C1c2cccnc2C(=O)N1Cc1ccc(S(=O)(=O)N2CCN(c3ccc(Cl)cc3)CC2)cc1,"inconclusive: 20.6 µM [activator, single point]",–
CCC1NC(=S)NC(C)=C1C(=O)c1ccccc1 (stereo unspecified),–,inactive: 9.35%
CC(C)OC(=O)CCc1nc2ccccc2[nH]c1=O,"inconclusive: 14.1 µM [activator, partial curve, poor fit]",–
CC1CCC(C(C)C)C(OC(=O)Cn2c(-c3ccc(Cl)cc3)[n+](C)c3ccccc32)C1 (stereo unspecified),"inconclusive: 13 µM [inhibitor, partial curve]",–
CCc1cc(-c2n[nH]c(=S)n2Cc2ccccc2)cs1,–,inactive: 8.02%
COc1ccc(OCc2cc(C(=O)N(Cc3nccn3C)C(C)C)no2)c2ccccc12,"inconclusive: 13 µM [activator, partial curve]",–
Clc1ccc(-c2nc(/C=N/N3CCOCC3)c3ccccn23)cc1,"inconclusive: 23.1 µM [activator, single point]",–
Cc1ccc(-c2csc3ncnc(SCC(=O)c4ccc5c(c4)OCCO5)c23)cc1,–,inactive: -29.2%
CCn1nc(C)c(CNC(=O)CC2C(=O)NCCN2CC(C)(C)C)c1C (stereo unspecified),–,inactive: 3.87%
Cc1ccc(C(=O)OCC(=O)Nc2cc(S(C)(=O)=O)ccc2Cl)cc1S(=O)(=O)N1CCCCC1,"inconclusive: 3.26 µM [inhibitor, full curve]",–
O=C(NCCOc1ccccc1)c1ccccc1,–,inconclusive: 147% [activator]
O=C(O)c1ccc(COc2ccccc2Cl)cc1,"inconclusive: 18.4 µM [activator, single point]",–
O=C(CSc1ccc(-c2ccc(F)cc2)nn1)NCCc1ccccc1,–,inactive: -3.71%
Cc1cccc(NC(=S)NNC(=O)c2csc3c2CCCC3)c1,"inconclusive: 8.2 µM [activator, partial curve]",–
CCOc1ccccc1NC(=O)C(=O)CC(=O)c1cccc(OC)c1,–,inactive: -20%
COCCN1C(=O)C(CC(=O)Nc2ccccc2)SC1=Nc1ccc(OC)cc1 (stereo unspecified),"inconclusive: 18.4 µM [inhibitor, single point]",–
COc1ccccc1OCC(=O)NCCc1nc2ccccc2[nH]1,–,inactive: -6.07%
O=C(O)Cc1ccc(OCc2ccc(Cl)nc2)cc1,"inconclusive: 10.3 µM [activator, partial curve, poor fit]",–
COCc1cc(C)nc(SCc2ccc([N+](=O)[O-])cc2)c1C#N,–,inactive: -24.5%
O=C(C[C@H]1C[C@H](C(=O)N2CCOCC2)[C@@]2(CCC3CCCC3)c3[nH]c4cc(-c5ccco5)ccc4c3CCN2C1=O)NCCC1=CCCCC1,–,inactive: 3.17%
CN1C(=O)C(C)(C)c2cc(S(=O)(=O)NCCc3ccc(Cl)cc3)ccc21,"inconclusive: 23.1 µM [activator, partial curve, poor fit]",–
Cc1ccccc1OCC(=O)Nc1cccc(C(=O)O)c1,"inconclusive: 0.259 µM [activator, partial curve]",–
O=C(CSc1ncnc2c1oc1ccccc12)c1cccs1,"inconclusive: 4.61 µM [activator, partial curve]",–

# A draw from above in order of number of heavy atoms, low to high:
SMILES,Potency,"activity change, negative = inhibition"
CC(C)OC(=O)CCc1nc2ccccc2[nH]c1=O,"inconclusive: 14.1 µM [activator, partial curve, poor fit]",–
COc1ccccc1OCC(=O)NCCc1nc2ccccc2[nH]1,–,inactive: -6.07%
O=C1c2cccnc2C(=O)N1Cc1ccc(S(=O)(=O)N2CCN(c3ccc(Cl)cc3)CC2)cc1,"inconclusive: 20.6 µM [activator, single point]",–
O=C(C[C@H]1C[C@H](C(=O)N2CCOCC2)[C@@]2(CCC3CCCC3)c3[nH]c4cc(-c5ccco5)ccc4c3CCN2C1=O)NCCC1=CCCCC1,–,inactive: 3.17%

# (cont.)

SMILES,Potency,"activity change, negative = inhibition"
COc1cccc(C(=O)Nc2ccc(-n3nncc3C(C)(C)C)cc2)c1,"inconclusive: 23.1 µM [inhibitor, single point]",–
CC(=O)CCC(=O)NC1CCCc2c1cnn2-c1ccc(C(C)(C)C)cc1 (stereo unspecified),–,inactive: -12.5%
CC1(C)Oc2ccc(/C=C/C(=O)N3CCOCC3)c(O)c2C(N2CCOCC2)C1O (stereo unspecified),"inconclusive: 16.4 µM [activator, single point]",–
O=C(N/N=C\c1cc2c(cc1Cl)OCO2)c1ccc(Br)s1,"inconclusive: 29.1 µM [activator, single point]",–
CCCN1CCN(CCCNC(=O)CN2C(=O)c3cccnc3Oc3ccc(C)cc32)CC1,"inconclusive: 8.2 µM [activator, partial curve, poor fit]",–
COCCn1c(=S)[nH]c2cc(C(=O)N3CCC(C(N)=O)(N4CCCCC4)CC3)ccc2c1=O,–,inactive: -1.94%
Cc1cccc(C(=O)Nc2cc(C)ccc2NC(=O)COc2ccccc2)c1,"inconclusive: 16.4 µM [inhibitor, partial curve]",–
Cc1ccccc1-c1nc(CS(=O)(=O)CC(=O)NCc2ccccc2)c(C)o1,"inconclusive: 1.16 µM [inhibitor, single point]",–
O=C1CC2(CCN(C(=O)c3ccc(F)c(F)c3)CC2)Oc2ccccc21,–,inactive: -2.5%
N#Cc1ccc(CN2CCN(C(=O)C3CC(=O)N(c4ccccc4F)C3)CC2)cc1 (stereo unspecified),"inconclusive: 10.3 µM [inhibitor, single point]",–
Cc1cc2c(cc(C(=O)OCC(=O)NCc3cccs3)n2C(C)C)o1,–,inactive: -26.5%
C/C(CCc1ccco1)=N\NC(=O)CNc1cccc2ccccc12,–,inactive: 7.58%
Cc1ccc(C)n1-c1cccc(C(=O)Nc2ccccc2)c1,"inconclusive: 6.51 µM [activator, partial curve]",–
CCn1c(SCC(=O)NC2CCCCC2)nnc1-c1ccco1,"inconclusive: 18.3 µM [activator, partial curve, poor fit]",–
CC(=O)Nc1nc2ccccc2n1CCOc1ccccc1,"inconclusive: 29.1 µM [activator, single point]",–
Fc1cccc(Nc2ncnc3sccc23)c1,–,inactive: -20.2%
O=C(Nc1ccc(O)cc1)/C(=C\C=C\c1ccccc1)NC(=O)c1ccccc1,"inconclusive: 23.1 µM [inhibitor, single point]",–
Cc1cc(C)c(C(=O)NC2CCCc3c2cnn3-c2cccc(C)c2C)o1 (stereo unspecified),–,inactive: 12.3%
Cc1cc(C)n2nc(SCc3ccccc3F)nc2n1,"inconclusive: 18.3 µM [activator, single point]",–
COCCCn1c(C2CCCCC2)nc2oc3cc(OC)ccc3c(=O)c2c1=O,"inconclusive: 11.2 µM [inhibitor, single point]",–
O=S(=O)(c1cnc(Cl)c(Br)c1)N1CCCCCC1,–,inactive: -20.8%
CCCCNS(=O)(=O)c1cc(-c2nn(C)c(=O)c3ccccc23)ccc1C,–,inactive: 12.8%
Cc1nc2ccccc2c(=O)n1/N=C/c1c(O)ccc2ccccc12,"inconclusive: 23.1 µM [inhibitor, single point]",–
